Drawing on article doi:10.1101/2024.05.08.592654, this text covers binding for 4 molecules.

These are yes or no findings as the source states them, for the method shown. Binding seen in cells or lysates may run through a third protein. A yes stands for co-enrichment or nearness to the bait. Other partners may have been found.

First the molecules themselves.
B1: Acinus (protein, UniProt Q9VJ12 1-739)
chain: MRRRSERKKSSSPAPVPVAVARRSRRSRKVSENEKTEVETPVVAQNNEAECPKVPPASQEINEARASSEERAGSGASPVRRSRGSRTTPRKRTESKGGDKKVDTIPEEEPENGKDVEKDAVEEEKTVAPPAANESESEDRAKTEDQQAQDDESCAEPAVVKDDDVEKEDLKPQQEVPTSTDDDTKQSEPEQEVKVPSPSSKDEEHLKTTSDVLDIQTEEVDERDEEASAPAERRETKKRHKEQIKEQQPAEEEEHKENHKQIDENPEQIHDEPADLSNDKHDPCLNSSATNTTGAPVLQQQRSVRKRKWLTNKKSSDRTPPVLAISTDSLKNIIADVVQPVPLSDVQLESSSEEEGLVTSDRDSERSASPAPPSEASKDRDNKGNTANTCDTTAEASADNEGAGAAPPAAADTVSAQVSLSKATVSTAAPHIVRDPSPARNRASHVLYITNLVRPFTVLQLKGLLARTGKIVEEDGFWIDRIKSKCYVAYSTEDEAIETRHALHGVRWPVSNPKCLNVDFGSRTDMDRAILSTKDEAPRYGQENTRDNQQSGNAWSRLEPSDKKPARPVREWDVGKKEPSDHDKHSNDRRRDSKDRLDSRSRDAERAGQERKRSRDREGRGRDRERERLDRNAHARSRSGSPASKTKKENEPPIRLLDDLFRKTKGTPCIYWLPLTPEAIAEKEAFRQKRIEEHKLRIKEREERQKEREKDRDRQRETRRNRSNERRRSRSRERERRRY
B2: Pitslre/Cdk11 (enzyme, UniProt Q9VPC0 1-952)
chain: MVNSSGSEDGQLRSPNDVHYHSRGEEDEHEGDADALYIQPPQASRESGSGPRREKKKHSRERRRHKERDDVGGAALALERDHRYDYRSREEHYHHHQRERSSNAAAAYAKHHLGHAYHYPQPPQQQQQPLPPAPSYAAHHYHHHQHLSGARAAPREYHSYPSGYHSGSRHGDYPMEEPTRRSSKYAESKDAESLEQDLRSRLLKKRHNYVKDYETEENYEHRVERSDRREGGRKERERTVRSTHKQNRHDRVIELLDSPEQEHHHQHQHKSHRSKWREEVEVIRRKVPEDLELLARREKLLAAERESRQRKQTAREELEARRELLRERNEHSDALSPTTVAASVTAGLNIHVKRKSKPDNYEKEIKLKKRREDDIEVIRDDDDEESEESDSNEEVPEQDSEGSATESGSEDSYASKKKSKIKSKSQLEDDDEDLPLPDSPLSVGELYKSPKQRQRSRSVSSKSSSQSSRSSRSRSRSRSQSSLEDEVDRQDVGADASPSSSTRSEERGMTQEQPEEKPEEKLKEKQKSLEEQIPCDDKGIPLPNYYPGVQGCRSVEEFQCLNRIEEGTYGVVYRAKDKRTNEIVALKRLKMEKEKEGFPITSLREINTLLKGQHPNIVTVREIVVGSNMDKIFIVMDYVEHDLKSLMETMKNRKQSFFPGEVKCLTQQLLRAVAHLHDNWILHRDLKTSNLLLSHKGILKVGDFGLAREYGSPIKKYTSLVVTLWYRAPELLLCSPVYSTPIDVWSVGCIFAEFLQMLPLFPGKSEIDELNRIFKELGTPNEKIWPGYTELPAVKNMLSQNSQFTEYPVSQLRKHFQEKTSEMGLSLLQGLLTYDPKQRLSADAALKHGFFKELPLPIDPSMFPTWPAKSELGARKAQASSPKPPSGGSQFKQLGRDEPIIVGPGNKLSSGIITGNKKSHGAGGSSASTGFVLNAGITQRQLAMGPGFSLKF
B3: Drosophila Wdr82 (protein, UniProt Q9VLN1 1-317)
chain: MKIKLIDSVVRSFKVAKIFRENTDKINAIDFAPNGEHLISCSEDDQIVIYDCEKGTQSRTVNSKKYGVDLIHFTHANNTAIHSSTKVDDTIRYLSLHDNKYLRYFPGHTKKVISLCISPVEDTFLSGSLDKTLRLWDLRSPNCQGLMHLSGRPIAAYDPEGLIFAAGVNSESIKLYDLRSFDKGPFVTFKLNQEKECDWTGLKFSRDGKTILISTNGSVIRLVDAFHGTPLQTFTGYPNNKGIPIEASFSPDSQFIFSGSTDGRVHIWNADTGNKVSVLNGDHPGPVQCVQFNPKYMMLASACTNMAFWLPTSEEGL
B4: Cdk12 (enzyme, UniProt Q9VP22 1-1157)
chain: MHASSAAATALVEYSDVSSEDFSDQEAGDLDADAGKGAGNIKKPKPAPDNQFSKGRLDAKPDKEGYDNYRSRRAEDSSDPVAAGSRQTSSSEATNPREEPSQASNTSKDELWGREIYMSSDSIDTDELEAEMKRQKRKKQKKEKHKHKSKKKSKKRKKKRAKSYSSIDSMSDNDINALLDRRYTPPTAPSKSNERTVSAAPSSFTPHNLKESSSPATPPPVRRPNTNSNYYGESSLETANSALGSNLQVTVTNKQSISNRLRSPPPSSRSSGNGPRFGNSPRTPPPSHYSSSGGGGVGSGSVVRDSRSSRYVNSPHKEDVSAHHRSSHDHGYQGRYSGAGSSSHDTRKVKRLSPELDRYNHQPSTPPHKRRKFSDGREVGLGNFEHSRHHSGKYERYSRDRYSRRSSRSPSVQHSRSRQSPSGGLSSGSNAFRHGGSHKHKYGTTVSSTPSHTTRTSKRASGTGTSGDRYSRSPRTSSRYMESSPPSPVGASGSHHYHHRRSPRMRQRTRGDSRRRSPSSASSESSASRSRSPTSRDLKHKREEYIKKISETSLFAELVKDRHKRQKALKEIIERQEENSNSNSNGALTINDNSSSVDGNTPNAADGRSAPGSGTPAAASTTSNGLQALGSKPDLDLNNIPMPNKQNDSVVSNPASNADVPDSVAQLKQPLLVPPFSASKNNIKPKSLTSLPLPPGMNVLDLAGARSPSPGQKKESDEKNVTSSGSANKSVLNLPMPPVIPGSEELSGDDDVIDSPEDFDAPAVGTVHGHGGGPGTTRQRPVILNRRDSRNNVRDWGERCVDVFEMIAQIGEGTYGQVYKARDHHTNDMVALKKVRLEHEKEGFPITAVREIKILRQLNHRNIVNLHEIVTDKQDAVEFRKDKGSFYLVFEYMDHDLMGLLESGMVDFNEENNASIMKQLLDGLNYCHKKNFLHRDIKCSNILMNNRGKVKLADFGLARLYNADDRERPYTNKVITLWYRPPELLLGEERYGPSIDVWSCGCILGELFVKRPLFQANAEMAQLETISKICGSPVPAVWPNVIKLPLFHTLKQKKTHRRRLREDFEFMPAPALDLLDKMLDLDPDKRITAEDALRSPWLRKINPDEMPTPQLPTWQDCHELWSKKRRRQMREQQESLPPTVIASTKYQQHGATMVGDA

In one experiment the target is GFP-PNUTS^W726A-HA (non-PP1 binding mutant) (Drosophila). Description: affinity purification with mass spectrometry.
With B1, the binding result is reported as “binds”.
Still for that read-out and setting: under B2 stands “binds”.

The target of a further experiment is GFP-PNUTS^WT-HA (PP1 Nuclear Targeting Subunit, wild type) (Drosophila). Briefly: affinity purification with mass spectrometry.
In the case of B1, the binding entry was “binds”.
With B3, the binding result is given as “binds”.
Still for that read-out and setting: for B2 the value was “binds”; for B4, “binds”.
